Data as given in patent US20230364266A1.
These are yes or no findings as the source states them, for the method shown. Some binding calls cover weakened binding; strength is not graded here.

The chains behind the UniProt entries cited, without tags or fusion partners. Residues count along the entry.
UniProt P06127, residues 25-372: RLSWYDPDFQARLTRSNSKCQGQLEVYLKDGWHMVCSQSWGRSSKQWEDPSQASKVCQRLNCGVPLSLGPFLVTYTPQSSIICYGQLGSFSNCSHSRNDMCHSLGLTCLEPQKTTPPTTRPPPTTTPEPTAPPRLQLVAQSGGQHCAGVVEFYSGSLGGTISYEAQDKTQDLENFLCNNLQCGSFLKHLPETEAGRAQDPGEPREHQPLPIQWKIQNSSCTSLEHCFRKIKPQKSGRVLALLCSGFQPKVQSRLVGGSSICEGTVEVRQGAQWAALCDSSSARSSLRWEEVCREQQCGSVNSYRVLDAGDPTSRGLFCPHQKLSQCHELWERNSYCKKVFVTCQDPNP

Columns and labels:
[1] = molecular target: labeled CD5 protein (Alexa647-conjugated CD5 protein) (UniProt P06127); assay: flow cytometry; transfected HEK293T cells carrying the receptor stained with labeled CD5
[2] = molecular target: labeled CD5 protein (Alexa647-conjugated CD5 protein) (UniProt P06127); assay: flow cytometry; retrotransposed HEK293 cells stained with Alexa647-conjugated CD5 protein, compared with negative control cells

B1: CD5-FcR-PI3K chimeric receptor (ATAK receptor; CD5 binder chimeric antigen receptor), expressed from LINE-1-plasmid_CD5-intron-FCR-PI3K (receptor)
chain: EIQLVQSGGGLVKPGGSVRISCAASGYTFTNYGMNWVRQAPGKGLEWMGWINTHTGEPTYADSFKGRFTFSLDDSKNTAYLQINSLRAEDTAVYFCTRRGYDWYFDVWGQGTTVTVSSGGGGSGGGGSGGGGSDIQMTQSPSSLSASVGDRVTITCRASQDINSYLSWFQQKPGKAPKTLIYRANRLESGVPSRFSGSGSGTDYTLTISSLQYEDFGIYYCQQYDESPWTFGGGTKLEIKSGGGGSGALSNSIMYFSHFVPVFLPAKPTTTPAPRPPTPAPTIASQPLSLRPEACRPAAGGAVHTRGLDIYIWAPLAGTCGVLLLSLVITLYCRRLKIQVRKAAITSYEKSDGVYTGLSTRNQETYETLKHEKPPQGSGSYEDMRGILYAAPQLRSIRGQPGPNHEEDADSYENM
binding [1]: binds | binding [2]: binds
